# Library screening results

Amino acid sequences for entries named in this document (tags omitted).
UniProt E9BF75, entry or part of it: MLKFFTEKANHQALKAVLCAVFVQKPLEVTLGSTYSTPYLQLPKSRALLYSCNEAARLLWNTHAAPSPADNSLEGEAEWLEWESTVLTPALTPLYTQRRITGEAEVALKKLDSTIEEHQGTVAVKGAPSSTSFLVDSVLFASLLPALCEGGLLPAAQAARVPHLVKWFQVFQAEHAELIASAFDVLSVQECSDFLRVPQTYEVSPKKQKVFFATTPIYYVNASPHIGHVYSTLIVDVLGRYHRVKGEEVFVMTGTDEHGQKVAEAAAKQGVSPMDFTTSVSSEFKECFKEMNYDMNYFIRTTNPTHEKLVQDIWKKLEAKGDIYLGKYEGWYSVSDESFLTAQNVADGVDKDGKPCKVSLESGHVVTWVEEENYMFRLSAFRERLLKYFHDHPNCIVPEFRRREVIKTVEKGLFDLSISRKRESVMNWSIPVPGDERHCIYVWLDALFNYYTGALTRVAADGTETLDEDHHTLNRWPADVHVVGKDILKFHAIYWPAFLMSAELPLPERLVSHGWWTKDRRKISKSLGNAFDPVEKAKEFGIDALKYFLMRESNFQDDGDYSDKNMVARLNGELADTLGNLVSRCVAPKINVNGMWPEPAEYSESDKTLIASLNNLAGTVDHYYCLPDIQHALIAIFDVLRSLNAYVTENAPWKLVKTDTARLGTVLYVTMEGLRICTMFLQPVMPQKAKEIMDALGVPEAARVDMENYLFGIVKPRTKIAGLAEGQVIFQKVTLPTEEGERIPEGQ

Data taken from ChEMBL document CHEMBL3988442, “University of Dundee, Small-Polar-MMV Screening Library” (2021).

LdMetRS: 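Primary screen of methionyl-tRNA synthetase; the read-out is not stated. Target: Methionyl-tRNA synthetase (putative), Leishmania donovani (UniProt E9BF75). The test concentration is not given. The values are filed as inhibition. Size under these conditions: about 68,000 compounds, about 24 of them at 50% or above in at least one test.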
Mtb heat-shock: 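Assay on Mycobacterium tuberculosis, filed only as a heat shock assay from Cornell; the read-out is not stated. The concentration is filed as 10 mM, unlikely as a test dose, so the dose is not known. Higher reads as stronger inhibition (inferred: compounds with an IC50 in retests scored well above the rest). About 69,000 compounds were tested under these conditions; 1.4% (about 930) showed 50% or more at least once.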

All values are in %. The controls that fix the scale are not given in the record; negative values are as filed. The compounds are a random part of those screened.

CC(C)CC(=O)N1CCC2(CC1)NC(=O)[C@H]1CN(C(=O)N(C)C)C[C@H]12 gave LdMetRS: 5%. CN(C)Cc1nn(C)c2c1CCN(C(=O)c1cnccn1)C2 gave LdMetRS: 2.74%. CCOCc1cncc2c1CCN(S(=O)(=O)c1ccc(C)cc1)C2 gave LdMetRS: 14.98%; Mtb heat-shock: -10.3%. Cc1ccc(CN2CCN(Cc3ccc4nonc4c3)CC2=O)cc1 gave LdMetRS: 15.38%; Mtb heat-shock: -13.48%.

With CC(=O)NCC(=O)N1Cc2cc(C#N)ccc2C1c1cnco1 (stereo not shown) the screen gave LdMetRS: 6.884%; Mtb heat-shock: -31.35%. Cc1nccn1CCNC(=O)C1(C)CC(c2ccccc2)=NO1 (stereo not shown) gave LdMetRS: 13.83%; Mtb heat-shock: 4.201%. Cc1nc(C)n(CC2CCCCN2CCCS(N)(=O)=O)n1 (stereo not shown) gave LdMetRS: 14.38%; Mtb heat-shock: 1.409%. Nc1cc2c(nn1)CCN(C(=O)c1csc(-c3ccccc3)n1)C2 read LdMetRS: 29.73%; Mtb heat-shock: -2.467%.

Result for Cc1nc(-c2nnc[nH]2)sc1C(=O)N(Cc1cccnc1)C1CC1 was LdMetRS: 15.34%; Mtb heat-shock: 14.96%. With COCc1ccc(CNc2cnn(C(C)(C)C)c(=O)c2Cl)cc1 the screen gave LdMetRS: 13.65%; Mtb heat-shock: 8.993%. With O=C(Cc1ccsc1)N1C[C@@H]2OCCN(c3cnccn3)[C@@H]2C1 the screen gave LdMetRS: 3.258%. CC(C)CC(=O)NS(=O)(=O)c1ccc(C#N)cc1C(F)(F)F read LdMetRS: 17.22%; Mtb heat-shock: -6.265%.

With O=C(CSc1nc2nncc-2c(O)n1-c1ccccc1)N1CCOCC1 the screen gave LdMetRS: 11.05%; Mtb heat-shock: 15.87%. Result for CC(C)C(=O)NCC(=O)N(C)C1CCCN(CCc2ccccc2)C1 (stereo not shown) was LdMetRS: 7.609%; Mtb heat-shock: -6.089%. With CCCn1nc(C)c(CNC(=O)C2COc3ccc(OC)cc3C2)c1C (stereo not shown) the screen gave LdMetRS: 19.31%; Mtb heat-shock: -1.789%. With O=C(C1=CCCCC1)N1CCC2(CC1)COC(COc1ccccn1)C2.O=C(O)C(F)(F)F (stereo not shown) the screen gave Mtb heat-shock: -2.067%.

Result for O=C(NCC1(CO)CC1)c1nnn(-c2ccc(F)cc2)c1C1CC1 was LdMetRS: 8.242%; Mtb heat-shock: -22.99%. With Cc1cc(-c2cnc(NC3CCCC3)nc2-c2ccoc2C)on1 the screen gave LdMetRS: 20.89%; Mtb heat-shock: 42.24%. For O=C(O)C(F)(F)F.O=C(O)C(F)(F)F.[H][C@@]12CC(=O)N(c3cccnc3)[C@@]1([H])CCN2Cc1ccc(C)o1 the result was Mtb heat-shock: -41.97%. With [H][C@@]12CCN(C[C@@H]1CC)[C@@H](CNCc1ccc(OC(F)(F)F)cc1)C2 the screen gave Mtb heat-shock: 100.5%.

CCc1ccc(CCNc2ncnc3c2CCN(C(=O)C2CC2)C3)cc1 gave LdMetRS: 14.63%; Mtb heat-shock: 27.65%. Result for COc1cc(N2C[C@@H]3COC[C@@H](Cc4nnc(C)o4)[C@@H]3C2)ncn1 was LdMetRS: 5.279%. With [H][C@@]12CNC(=O)[C@H](C)[C@]1([H])CN(Cc1cc(OC)cc(OC)c1)C2 the screen gave Mtb heat-shock: -7.431%. CCOCC1c2c(ncn2C)CCN1C(=O)c1ccoc1 (stereo not shown) read LdMetRS: 10.56%; Mtb heat-shock: 35.15%.

CN1CCc2[nH]nc(C(=O)N3CCCC4(CC3)CNC(=O)O4)c2C1 (stereo not shown) gave LdMetRS: 0.2564%; Mtb heat-shock: 11.95%. Result for Cc1nccc(C2CN(Cc3ccc(-c4ccccc4C(=O)O)o3)C2)n1 was LdMetRS: 10.31%; Mtb heat-shock: 13.79%.